According to article PMC5638340:
Results are given in words; binding and its absence hold for the method and conditions named. Some binding calls cover weakened binding; strength is not graded here.

Sequences of proteins named here, by UniProt entry; tags and fusion partners are left off. Residues count along the entry.
UniProt P36544, residues 23-502: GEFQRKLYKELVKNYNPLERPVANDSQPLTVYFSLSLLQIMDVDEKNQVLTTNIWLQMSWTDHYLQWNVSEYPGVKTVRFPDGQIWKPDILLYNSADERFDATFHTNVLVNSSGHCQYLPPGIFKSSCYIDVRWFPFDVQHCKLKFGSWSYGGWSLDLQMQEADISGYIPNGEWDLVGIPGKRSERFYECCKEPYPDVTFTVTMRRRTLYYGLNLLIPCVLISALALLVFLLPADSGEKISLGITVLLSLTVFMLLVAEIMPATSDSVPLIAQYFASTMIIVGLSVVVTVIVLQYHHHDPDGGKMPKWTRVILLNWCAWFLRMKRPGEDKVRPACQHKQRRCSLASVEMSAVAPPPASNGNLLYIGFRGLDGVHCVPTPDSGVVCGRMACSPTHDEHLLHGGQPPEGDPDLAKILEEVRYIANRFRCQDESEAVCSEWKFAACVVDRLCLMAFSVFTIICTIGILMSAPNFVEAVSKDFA
UniProt P60615, residues 22-95: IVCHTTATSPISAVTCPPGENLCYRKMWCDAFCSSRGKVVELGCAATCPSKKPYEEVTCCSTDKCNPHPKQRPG

Molecular target: Human α7 nAChR expressed in GH4C1 cells (human) (UniProt P36544)
Assay: radioligand binding; only the binder purified

For “Mono-iodinated (3-[125I]iodotyrosyl54)-α-bungarotoxin (from UniProt P60615 22-95) (ligand)”, the binding was “binds”.
